Data taken from PubChem BioAssay AID493014 (National Center for Advancing Translational Sciences (NCATS), 2011).
Where “and” joins values, the source holds several entries; their conditions need not be identical. Equal values may be shown once. Some of the results follow. Shown are side measurements of this screen, not its main read-out; they come without a call. Most of these compounds were active or inconclusive in the main read-out, so they are no random draw. The note in brackets gives the kind of curve behind each potency; many fits are weak.

Assay: qHTS Assay to Find Inhibitors of Chronic Active B-Cell Receptor Signaling
Details: ABC-DLBCL IkBa-CBG/CBR reporter, luminescence ratio (green luciferase fused to IkBa over red control in TMD8 lymphoma cells), 4 h
Procedure, shortened: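 Doxycycline induced both beetle luciferases in TMD8 lymphoma cells; IKK-driven degradation limits the IkappaBalpha-fused green signal, while red luminescence normalises for cell number and nonspecific effects. Compounds tested up to 46 uM, 4 hrs.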

[1] = measured here: CBR red luminescence, cell number
[2] = measured here: IkBa-CBG green luminescence

Row | Structure (SMILES) | AC50 [1] | AC50 [2]
1 | CCN(CC(=O)Nc1ccc(NC(C)=O)cc1)C(=O)CCCOc1ccc(C(C)(C)C)cc1 | 29.1 µM [falling, single point] | 
2 | O=S(=O)(NCCc1cn2ccccc2n1)c1ccc2c(c1)OCCO2 | 29.1 µM [rising, single point] | 
3 | COCc1cc(SC2CCCCC2)nc(C)n1 | 12.6 µM [rising, partial curve] | 
4 | O=c1oc2ccccc2c(NCc2cccc(F)c2)c1[N+](=O)[O-] | 18.4 µM [falling, partial curve] | 
5 | O=C(O)c1cc(-c2ccco2)nc2ccc(Br)cc12 | 29.1 µM [falling, single point] and 1.03 µM [falling, partial curve, poor fit] | 
6 | O=C(O)COn1c(-c2ccc(Cl)cc2)nc2ccc(Cl)cc21 | 10 µM [falling, partial curve, poor fit] | 
7 | Cc1ccccc1NS(=O)(=O)c1cccc(C(=O)Nc2cccc(C(=O)O)c2)c1 | 5.62 µM [rising, full curve, poor fit] | 
8 | C/C(CC(=O)Nc1cc(C)ccn1)=N\NC(=O)c1cccc(C)c1 | 11.2 µM [falling, partial curve, poor fit] | 
9 | NC(=O)C1CCN(Cc2nc3ccccc3c(=O)[nH]2)CC1 | 0.00411 µM [rising, full curve, poor fit] | 
10 | CCN(C(=O)COC(=O)c1cc(C)n(-c2ccc(F)cc2)c1C)C1CCS(=O)(=O)C1 (configuration not stated) | 2.31 µM [falling, full curve, poor fit] | 
11 | CC1CCC/C(=C\Nc2ccc(C(=O)O)c(O)c2)C1=O (configuration not stated) | 20 µM [falling, partial curve, poor fit] | 
12 | CCCCn1c(N)c(N(CCOC)C(=O)c2cccc(OCc3ccccc3)c2)c(=O)[nH]c1=O | 0.92 µM [falling, full curve] | 
13 | CCOC(=O)c1csc(NC(=O)c2ccccc2)n1 | 6.51 µM [falling, full curve, poor fit] | 
14 | COc1ccc(-c2noc(CSc3nnc(Cc4ccccc4)n3-c3ccc(Cl)cc3)n2)cc1 | 4.61 µM [falling, partial curve, poor fit] | 
15 | O=C(Nc1nccs1)c1cc(Cl)nc2ccccc12 | 17.8 µM [falling, partial curve, poor fit] | 
16 | COc1cccc(/C=C2\SC(=S)N(CCCC(=O)N3CCCCC3CCO)C2=O)c1 (configuration not stated) | 0.708 µM [falling, full curve] | 
17 | COc1cccc(C(=O)O/N=C(\N)c2ccccn2)c1 | 2.82 µM [falling, full curve, poor fit] | 
18 | CCN(CC)CCNC(=O)NC1CCCCC1 | 25.9 µM [rising, single point] | 
19 | O=C(NCc1cccnc1)/C(=C\c1ccc(-c2ccc(Cl)c(Cl)c2)o1)S(=O)(=O)c1ccccc1 | 6.51 µM [falling, partial curve] | 
20 | COc1cccc(C2=NOC(C(=O)Nc3cc(C)nn3-c3ccccc3)C2)c1OC (configuration not stated) | 16.4 µM [falling, partial curve] | 
21 | O=C(CSc1nc2ncc(Br)cc2[nH]1)c1cccc([N+](=O)[O-])c1 | 8.2 µM [falling, partial curve] | 
22 | CC(=O)Oc1ccc(/C=N/NS(=O)(=O)c2ccc(C)cc2)c(OC(C)=O)c1 | 8.91 µM [falling, partial curve] | 

Row | Structure (SMILES) | AC50 [1] | AC50 [2]
23 | COc1ccc(NC(=O)NCCCN2CCCC2=O)cc1 | 29.1 µM [rising, partial curve, poor fit] | 
24 | COc1ccc2[nH]cc(C(O)CN3CCC(C(N)=O)CC3)c2c1 (configuration not stated) | 35.5 µM [falling, single point] | 
25 | Cc1ccc(S(=O)(=O)n2nc(OC(=O)c3ccccc3C)cc2N)cc1 | 14.1 µM [falling, single point] | 
26 | O=C(NCCCO)c1cc([N+](=O)[O-])cc2c1C=Cc1ccccc1O2 | 7.08 µM [rising, partial curve] | 
27 | CC(=O)Nc1ccc(S(=O)(=O)NCC2CCC(C(=O)NC(C)c3ccc4c(c3)OCCO4)CC2)cc1 (configuration not stated) | 17.8 µM [rising, single point] | 
28 | O=C1OC(Nc2ccc(Br)cc2F)c2ccccc21 (configuration not stated) | 0.891 µM [falling, full curve, poor fit] | 
29 | COC(=O)CSc1n[nH]c(-c2ccncc2)n1 | 18.4 µM [falling, single point] | 
30 | COCCNC(=O)C(=O)NCC(c1ccc2c(c1)OCO2)N1CCN(c2ccc(F)cc2)CC1 (configuration not stated) | 0.631 µM [falling, partial curve, poor fit] | 
31 | COc1ccc(C(O)Cc2nc3ccccc3n2C)cc1OC (configuration not stated) | 29.1 µM [rising, single point] | 
32 | CC(OC(=O)Cc1c[nH]c2ccccc12)C(=O)N(C)c1ccccc1 (configuration not stated) | 18.4 µM [falling, partial curve] | 
33 | Cc1ccc(-n2c(SCC(=O)NCc3cccs3)nnc2-c2ccoc2C)cc1 | 20 µM [falling, single point] | 
34 | CCc1ccc(OCCCC(=O)Nc2cccc(C(=O)O)c2)cc1 | 20 µM [rising, single point] | 
35 | CCOC(=O)N1CCN(C(=O)c2cc(COc3c(F)cccc3F)on2)CC1 | 8.91 µM [rising, partial curve, poor fit] | 
36 | CCN(CC)C(=O)CSc1nnc(SC(C)C(=O)NC2CC2)s1 (configuration not stated) | 0.164 µM [rising, full curve, poor fit] | 
37 | CC(C)C(=O)Nc1ccc(NC(=O)c2ccco2)cn1 | 1 µM [rising, full curve] | 
38 | Cc1nc(Nc2ccc(C(=O)O)cc2)sc1-c1ccccc1 | 1 µM [falling, full curve, poor fit] | 
39 | CCOc1ccc(CCNC(=O)c2cc(=O)[nH]c3ccc(S(=O)(=O)N4CCCCC4)cc23)cc1OCC | 0.891 µM [rising, full curve, poor fit] | 
40 | Cc1cc(Sc2nnc(/N=C/N(C)C)s2)c2ccccc2n1 | 7.08 µM [falling, full curve, poor fit] | 
41 | O=C(Cc1c(F)cccc1Cl)NNC(=O)c1ccco1 | 29.1 µM [rising, single point] | 
42 | C=CCn1c(SCC(=O)OCc2ccccc2)nc2c1c(=O)n(C)c(=O)n2C | 0.731 µM [falling, full curve] | 
43 | CCCn1ccc2c(OCC(=O)Nc3ccc(NC(C)=O)cc3)cccc2c1=O | 0.00461 µM [rising, full curve, poor fit] | 
44 | N=c1n(CCN2CCCCC2)c2ccccc2n1CC(O)c1ccco1 (configuration not stated) | 0.708 µM [falling, full curve, poor fit] | 

Row | Structure (SMILES) | AC50 [1] | AC50 [2]
45 | CCCCN(CC)Cc1c(O)ccc2c3c(c(=O)oc12)CCC3 | 12.6 µM [rising, partial curve, poor fit] | 
46 | COc1ccc(C(C)(C)C)cc1NC(=O)COC(=O)c1nc2nccc(C)n2n1 | 0.92 µM [rising, full curve, poor fit] | 
47 | COc1ccc(CCNc2ncnc3[nH]ncc23)cc1OC | 5.8 µM [falling, full curve, poor fit] | 
48 | CCc1nc2ccc(C(=O)NCc3ccco3)cc2nc1CC | 14.6 µM [falling, partial curve, poor fit] | 
49 | Clc1ccc(N=c2ssnc2Cl)nc1 | 11.2 µM [rising, partial curve] | 
50 | CC(=O)COc1cccc2ccc(/C=C/c3ccc(Br)s3)nc12 | 0.794 µM [falling, full curve] | 10 µM [falling, partial curve, poor fit]
51 | Cc1ccc(C(=O)CNc2cccc(Cl)c2)cc1 | 0.146 µM [rising, full curve] | 
52 | CCN(CC)C(=O)C(=O)Nc1cccc(Br)c1 | 35.5 µM [falling, single point] | 
53 | CCN(CC)C(=O)Oc1ccc2ccccc2c1Br | 17.8 µM [rising, partial curve, poor fit] | 
54 | O=C(c1ccc2oc(CCCc3ccccc3)nc2c1)N1CCCC1 | 22.4 µM [falling, partial curve, poor fit] | 
55 | CC(C)(C)NC(=O)NC(=O)CSc1ccc(S(=O)(=O)N2CCCCC2)cn1 | 4.11 µM [falling, partial curve, poor fit] | 
56 | O=C(CSc1nnc(CNc2ccccc2)o1)c1ccc2c(c1)OCCO2 | 20.6 µM [falling, single point] | 23.1 µM [rising, single point]
57 | COc1ccc(/C=N/n2cnc3c([nH]c4ccccc43)c2=O)cc1COc1ccccn1 | 3.16 µM [rising, single point] | 
58 | CCCCc1c(C)[nH]c(C(=O)OCC)c1C | 12.6 µM [rising, partial curve] | 12.6 µM [falling, single point]
59 | Oc1c(C(c2ccccc2)N2CCC(O)CC2)sc2nc(-c3ccco3)nn12 (configuration not stated) | 12.6 µM [rising, partial curve, poor fit] | 
60 | Nc1ccccc1Nc1cc(-c2ccccc2)[nH]n1 | 3.55 µM [falling, full curve, poor fit] | 
61 | CCOC(=O)C(Sc1cc(-c2ccccc2)nc2ncnn12)C(C)=O (configuration not stated) | 3.98 µM [rising, full curve, poor fit] | 
62 | CC1CN(C2CCN(C(=O)c3cccc(Cl)c3)CC2)CC(C)O1 (configuration not stated) | 0.631 µM [falling, full curve, poor fit] | 
63 | Cc1nc(CS(=O)(=O)c2ccc(Cl)cc2)sc1C(=O)O | 0.447 µM [falling, full curve, poor fit] | 
64 | Cc1ccc(NNC(=O)C(O)(c2cccc(C(F)(F)F)c2)c2cccc(C(F)(F)F)c2)cc1 | 23.1 µM [falling, partial curve] | 

An excerpt from above in order of number of heavy atoms, largest number first:
Row | Structure (SMILES) | AC50 [1] | AC50 [2]
59 | Oc1c(C(c2ccccc2)N2CCC(O)CC2)sc2nc(-c3ccco3)nn12 (configuration not stated) | 12.6 µM [rising, partial curve, poor fit] | 
56 | O=C(CSc1nnc(CNc2ccccc2)o1)c1ccc2c(c1)OCCO2 | 20.6 µM [falling, single point] | 23.1 µM [rising, single point]
61 | CCOC(=O)C(Sc1cc(-c2ccccc2)nc2ncnn12)C(C)=O (configuration not stated) | 3.98 µM [rising, full curve, poor fit] | 
63 | Cc1nc(CS(=O)(=O)c2ccc(Cl)cc2)sc1C(=O)O | 0.447 µM [falling, full curve, poor fit] | 
60 | Nc1ccccc1Nc1cc(-c2ccccc2)[nH]n1 | 3.55 µM [falling, full curve, poor fit] | 
52 | CCN(CC)C(=O)C(=O)Nc1cccc(Br)c1 | 35.5 µM [falling, single point] | 
